These are yes or no findings as the source states them, for the method shown. In cells and extracts the contact can be indirect. Here binding means that the protein was enriched with, or labelled near, the bait; the list need not be complete. No binding means not detected with the bait. Where a sequence is shown, tags or fusion partners need not be part of it.

Sequences of proteins named here, by UniProt entry; tags and fusion partners are left off.
UniProt P11103: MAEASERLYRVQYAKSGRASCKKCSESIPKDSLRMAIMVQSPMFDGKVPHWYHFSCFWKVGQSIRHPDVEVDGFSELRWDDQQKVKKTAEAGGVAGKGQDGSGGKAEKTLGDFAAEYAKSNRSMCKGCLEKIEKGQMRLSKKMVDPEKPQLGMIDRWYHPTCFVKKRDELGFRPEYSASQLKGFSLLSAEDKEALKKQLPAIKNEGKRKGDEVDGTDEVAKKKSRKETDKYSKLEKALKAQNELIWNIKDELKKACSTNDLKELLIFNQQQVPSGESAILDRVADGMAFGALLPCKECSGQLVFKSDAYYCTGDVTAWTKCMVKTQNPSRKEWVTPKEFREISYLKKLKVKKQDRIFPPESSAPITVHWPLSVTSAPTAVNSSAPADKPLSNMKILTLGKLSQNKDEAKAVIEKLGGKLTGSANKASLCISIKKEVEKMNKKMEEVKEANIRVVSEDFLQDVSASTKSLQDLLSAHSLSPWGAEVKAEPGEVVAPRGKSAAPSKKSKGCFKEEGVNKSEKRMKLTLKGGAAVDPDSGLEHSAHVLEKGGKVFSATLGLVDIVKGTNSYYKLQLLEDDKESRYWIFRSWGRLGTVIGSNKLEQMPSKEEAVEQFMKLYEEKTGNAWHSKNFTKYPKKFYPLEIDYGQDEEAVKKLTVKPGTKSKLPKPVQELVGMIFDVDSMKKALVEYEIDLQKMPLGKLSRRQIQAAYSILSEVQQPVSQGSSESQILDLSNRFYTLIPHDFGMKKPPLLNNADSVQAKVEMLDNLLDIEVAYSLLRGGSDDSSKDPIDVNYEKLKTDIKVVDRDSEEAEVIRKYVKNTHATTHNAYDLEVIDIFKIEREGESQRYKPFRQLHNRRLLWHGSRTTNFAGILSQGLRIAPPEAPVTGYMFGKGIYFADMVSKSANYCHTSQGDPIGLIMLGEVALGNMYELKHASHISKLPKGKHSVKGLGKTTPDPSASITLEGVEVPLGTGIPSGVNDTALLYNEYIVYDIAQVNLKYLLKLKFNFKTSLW
UniProt P19157: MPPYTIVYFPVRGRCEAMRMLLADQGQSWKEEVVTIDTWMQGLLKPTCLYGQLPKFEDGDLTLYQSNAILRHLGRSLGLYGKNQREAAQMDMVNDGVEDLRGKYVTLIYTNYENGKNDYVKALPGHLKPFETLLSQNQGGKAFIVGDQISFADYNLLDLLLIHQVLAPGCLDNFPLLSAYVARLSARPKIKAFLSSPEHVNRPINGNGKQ
UniProt Q9WUM4: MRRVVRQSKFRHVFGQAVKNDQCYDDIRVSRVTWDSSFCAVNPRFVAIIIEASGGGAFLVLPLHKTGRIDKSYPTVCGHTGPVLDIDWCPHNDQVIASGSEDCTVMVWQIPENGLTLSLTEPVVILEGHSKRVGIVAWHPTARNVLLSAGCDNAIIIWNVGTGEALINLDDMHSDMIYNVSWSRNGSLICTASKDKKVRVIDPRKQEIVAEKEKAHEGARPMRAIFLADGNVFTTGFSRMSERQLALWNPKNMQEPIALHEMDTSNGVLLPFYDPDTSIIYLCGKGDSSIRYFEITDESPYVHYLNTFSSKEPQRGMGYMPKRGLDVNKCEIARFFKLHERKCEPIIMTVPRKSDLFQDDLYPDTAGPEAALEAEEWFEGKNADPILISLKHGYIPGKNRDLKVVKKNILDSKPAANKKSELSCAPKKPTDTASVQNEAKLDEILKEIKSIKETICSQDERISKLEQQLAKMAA
UniProt P99024: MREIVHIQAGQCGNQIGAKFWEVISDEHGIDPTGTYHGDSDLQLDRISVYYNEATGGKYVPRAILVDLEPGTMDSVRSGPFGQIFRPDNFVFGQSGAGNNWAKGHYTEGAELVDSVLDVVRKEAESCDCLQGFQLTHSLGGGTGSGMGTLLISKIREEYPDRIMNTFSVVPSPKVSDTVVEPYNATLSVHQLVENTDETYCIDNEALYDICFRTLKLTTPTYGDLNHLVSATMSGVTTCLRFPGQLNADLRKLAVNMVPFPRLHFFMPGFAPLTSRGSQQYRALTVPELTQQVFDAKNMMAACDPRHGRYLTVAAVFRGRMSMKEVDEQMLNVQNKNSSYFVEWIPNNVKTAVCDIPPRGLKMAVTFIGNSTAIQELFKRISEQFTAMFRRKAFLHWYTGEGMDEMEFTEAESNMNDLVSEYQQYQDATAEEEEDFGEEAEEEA
UniProt P68372: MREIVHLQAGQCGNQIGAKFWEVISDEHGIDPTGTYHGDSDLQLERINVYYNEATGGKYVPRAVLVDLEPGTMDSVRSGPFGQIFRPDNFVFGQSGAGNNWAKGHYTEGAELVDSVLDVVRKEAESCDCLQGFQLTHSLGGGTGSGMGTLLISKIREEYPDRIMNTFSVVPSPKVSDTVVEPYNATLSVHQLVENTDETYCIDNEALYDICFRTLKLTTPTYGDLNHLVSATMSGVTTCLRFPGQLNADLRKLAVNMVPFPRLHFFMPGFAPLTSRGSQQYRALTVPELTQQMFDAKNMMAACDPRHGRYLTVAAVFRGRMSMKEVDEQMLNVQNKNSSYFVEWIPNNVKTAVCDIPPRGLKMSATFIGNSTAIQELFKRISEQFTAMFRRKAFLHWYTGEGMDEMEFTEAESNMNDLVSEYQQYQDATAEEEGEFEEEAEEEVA
UniProt Q9WUM3: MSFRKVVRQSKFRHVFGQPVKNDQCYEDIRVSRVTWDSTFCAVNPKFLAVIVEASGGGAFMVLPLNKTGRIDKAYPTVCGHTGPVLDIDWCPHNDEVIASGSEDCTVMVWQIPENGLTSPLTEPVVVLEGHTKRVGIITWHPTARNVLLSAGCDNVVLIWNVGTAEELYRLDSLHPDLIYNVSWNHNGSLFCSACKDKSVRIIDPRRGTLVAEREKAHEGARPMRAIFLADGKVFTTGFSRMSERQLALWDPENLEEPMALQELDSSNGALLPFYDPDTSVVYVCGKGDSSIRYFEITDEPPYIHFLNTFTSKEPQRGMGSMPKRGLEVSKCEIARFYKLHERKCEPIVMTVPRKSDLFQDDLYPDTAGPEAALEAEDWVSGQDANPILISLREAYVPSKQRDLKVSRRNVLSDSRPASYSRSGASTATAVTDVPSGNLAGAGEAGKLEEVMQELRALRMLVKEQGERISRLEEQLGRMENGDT
UniProt Q91WK0: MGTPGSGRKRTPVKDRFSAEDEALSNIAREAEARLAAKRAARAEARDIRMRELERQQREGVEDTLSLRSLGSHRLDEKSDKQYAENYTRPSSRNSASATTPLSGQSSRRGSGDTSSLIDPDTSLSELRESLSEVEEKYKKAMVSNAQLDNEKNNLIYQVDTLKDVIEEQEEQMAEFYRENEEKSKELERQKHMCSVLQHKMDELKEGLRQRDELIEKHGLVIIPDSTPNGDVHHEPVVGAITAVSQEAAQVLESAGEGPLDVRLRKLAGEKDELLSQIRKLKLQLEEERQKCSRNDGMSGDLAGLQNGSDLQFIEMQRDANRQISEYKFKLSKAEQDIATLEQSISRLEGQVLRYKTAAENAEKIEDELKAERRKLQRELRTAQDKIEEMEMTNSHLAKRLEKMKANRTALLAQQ
UniProt O88477: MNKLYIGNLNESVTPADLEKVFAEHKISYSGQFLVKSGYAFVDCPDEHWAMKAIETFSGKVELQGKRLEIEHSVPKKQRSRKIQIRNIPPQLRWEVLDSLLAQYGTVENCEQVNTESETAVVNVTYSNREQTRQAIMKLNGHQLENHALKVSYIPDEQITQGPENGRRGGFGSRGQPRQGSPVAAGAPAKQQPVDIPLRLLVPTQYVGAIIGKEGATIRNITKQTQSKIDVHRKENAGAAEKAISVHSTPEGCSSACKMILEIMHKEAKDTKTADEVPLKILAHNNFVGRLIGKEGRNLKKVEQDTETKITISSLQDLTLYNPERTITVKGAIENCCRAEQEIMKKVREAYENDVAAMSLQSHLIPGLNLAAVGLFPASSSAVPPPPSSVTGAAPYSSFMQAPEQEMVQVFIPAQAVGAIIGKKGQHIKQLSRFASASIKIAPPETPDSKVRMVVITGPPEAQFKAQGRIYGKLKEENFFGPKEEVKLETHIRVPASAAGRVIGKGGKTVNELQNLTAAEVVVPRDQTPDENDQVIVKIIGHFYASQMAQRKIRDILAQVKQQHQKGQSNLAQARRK
UniProt P68373: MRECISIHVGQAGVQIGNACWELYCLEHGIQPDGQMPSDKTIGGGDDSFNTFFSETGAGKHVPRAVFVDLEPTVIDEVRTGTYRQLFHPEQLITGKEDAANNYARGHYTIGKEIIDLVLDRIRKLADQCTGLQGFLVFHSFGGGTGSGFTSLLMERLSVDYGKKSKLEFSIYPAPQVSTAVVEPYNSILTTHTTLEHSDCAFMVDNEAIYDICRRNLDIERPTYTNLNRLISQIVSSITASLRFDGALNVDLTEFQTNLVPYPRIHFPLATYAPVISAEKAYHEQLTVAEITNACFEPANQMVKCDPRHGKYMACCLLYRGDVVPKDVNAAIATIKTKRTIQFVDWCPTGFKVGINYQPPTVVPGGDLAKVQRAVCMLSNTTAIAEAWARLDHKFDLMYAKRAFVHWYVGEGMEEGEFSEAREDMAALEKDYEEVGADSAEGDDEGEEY
UniProt Q61879: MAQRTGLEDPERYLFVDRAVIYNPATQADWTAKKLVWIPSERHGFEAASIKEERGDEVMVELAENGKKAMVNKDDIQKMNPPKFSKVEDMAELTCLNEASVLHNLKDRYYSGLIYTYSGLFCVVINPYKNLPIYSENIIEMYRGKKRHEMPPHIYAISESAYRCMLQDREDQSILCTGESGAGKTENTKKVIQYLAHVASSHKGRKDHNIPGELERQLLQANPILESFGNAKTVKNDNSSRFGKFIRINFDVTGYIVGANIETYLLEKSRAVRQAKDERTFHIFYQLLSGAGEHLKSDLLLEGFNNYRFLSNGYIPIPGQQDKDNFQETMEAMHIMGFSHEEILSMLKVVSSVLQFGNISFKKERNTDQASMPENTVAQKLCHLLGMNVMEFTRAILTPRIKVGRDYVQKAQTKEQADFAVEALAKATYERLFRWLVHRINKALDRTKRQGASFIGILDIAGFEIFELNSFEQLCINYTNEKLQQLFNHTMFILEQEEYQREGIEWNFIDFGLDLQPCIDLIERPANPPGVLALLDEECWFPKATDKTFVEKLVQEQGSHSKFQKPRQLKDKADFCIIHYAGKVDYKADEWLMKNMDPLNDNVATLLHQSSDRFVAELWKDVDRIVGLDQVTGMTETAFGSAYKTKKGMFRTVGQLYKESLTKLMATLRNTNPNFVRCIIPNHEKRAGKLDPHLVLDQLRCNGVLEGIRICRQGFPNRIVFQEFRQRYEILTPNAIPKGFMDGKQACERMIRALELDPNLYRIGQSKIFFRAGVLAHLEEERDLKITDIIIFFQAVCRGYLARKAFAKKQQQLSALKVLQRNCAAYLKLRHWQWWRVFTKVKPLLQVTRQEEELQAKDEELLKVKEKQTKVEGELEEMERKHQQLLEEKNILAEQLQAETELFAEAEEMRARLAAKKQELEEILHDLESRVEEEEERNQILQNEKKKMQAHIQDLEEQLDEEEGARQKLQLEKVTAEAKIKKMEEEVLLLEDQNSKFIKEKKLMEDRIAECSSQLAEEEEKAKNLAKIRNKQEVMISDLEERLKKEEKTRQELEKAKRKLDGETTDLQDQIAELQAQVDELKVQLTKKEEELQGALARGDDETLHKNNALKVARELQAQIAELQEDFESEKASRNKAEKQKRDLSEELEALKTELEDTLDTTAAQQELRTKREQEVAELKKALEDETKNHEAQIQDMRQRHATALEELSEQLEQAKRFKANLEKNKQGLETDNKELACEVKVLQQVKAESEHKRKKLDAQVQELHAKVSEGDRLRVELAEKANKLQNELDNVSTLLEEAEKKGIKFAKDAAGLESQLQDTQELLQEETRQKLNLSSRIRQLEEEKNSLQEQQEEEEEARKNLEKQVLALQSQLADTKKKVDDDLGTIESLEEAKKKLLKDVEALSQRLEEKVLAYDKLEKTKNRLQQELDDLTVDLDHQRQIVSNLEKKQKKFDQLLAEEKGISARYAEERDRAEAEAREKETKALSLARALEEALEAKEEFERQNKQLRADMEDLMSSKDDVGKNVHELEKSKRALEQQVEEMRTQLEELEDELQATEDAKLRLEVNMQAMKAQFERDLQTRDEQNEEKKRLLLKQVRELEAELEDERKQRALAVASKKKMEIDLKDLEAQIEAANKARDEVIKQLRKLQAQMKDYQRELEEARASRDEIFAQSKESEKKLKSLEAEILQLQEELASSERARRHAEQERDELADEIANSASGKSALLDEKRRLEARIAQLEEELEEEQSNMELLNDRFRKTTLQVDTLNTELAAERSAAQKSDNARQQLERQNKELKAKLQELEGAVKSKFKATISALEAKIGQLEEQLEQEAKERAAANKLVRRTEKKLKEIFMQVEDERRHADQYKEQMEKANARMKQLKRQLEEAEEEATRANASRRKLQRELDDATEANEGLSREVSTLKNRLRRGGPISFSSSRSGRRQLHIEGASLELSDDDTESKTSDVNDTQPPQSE

Binding data for 19 molecules are collected here from paper PMC5379670.

The target in this assay is T1, Flag-tagged mouse MAGE-G1 stably expressed in P19 cells (mouse) (UniProt Q9CPR8).
T1 sequence: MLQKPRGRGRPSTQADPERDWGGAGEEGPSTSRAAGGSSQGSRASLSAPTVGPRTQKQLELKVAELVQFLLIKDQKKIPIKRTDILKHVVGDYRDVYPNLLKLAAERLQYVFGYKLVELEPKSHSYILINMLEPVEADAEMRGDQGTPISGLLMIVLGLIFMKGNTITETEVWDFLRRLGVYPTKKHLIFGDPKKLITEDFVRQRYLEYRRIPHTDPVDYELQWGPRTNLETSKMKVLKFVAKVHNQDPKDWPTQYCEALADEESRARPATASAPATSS
In words: affinity purification with mass spectrometry; SILAC: lysates of heavy-labelled P19 cells stably expressing Flag-MAGE-G1 and light-labelled empty-vector cells, both RA-treated 6 days, mixed 1:1; anti-Flag immunoprecipitation in IP Lysis Buffer (25 mM Tris-HCl pH 7.4, 150 mM NaCl, 1% NP-40, 1 mM EDTA, 5% glycerol) overnight at 4 °C, Protein A/G Plus-agarose; SDS-PAGE, in-gel trypsin digestion, LC-MS/MS.

In the case of “Poly [ADP-ribose] polymerase 1 (from UniProt P11103 1-1013)”, the binding result is given as “no binding”.

For the molecule “Glutathione S-transferase P 1 (from UniProt P19157 1-210)”, the binding result is listed as “no binding”.

As for Coronin-1C (from UniProt Q9WUM4 1-474), the binding result was “no binding”.

Consider “Tubulin beta-5 chain (from UniProt P99024 1-444)”, for which the binding entry was “no binding”.

As to “Tubulin beta-4B chain (from UniProt P68372 1-445)”, the binding entry is listed as “no binding”.

For the molecule “Alpha-actinin-4 (from UniProt P57780 1-912)”, the binding result is given as “no binding”.

Coronin-1B (from UniProt Q9WUM3 1-484): the binding result is “no binding”.

Take “Inosine-5′-monophosphate dehydrogenase 2 (from UniProt P24547 1-514)”: the binding result was “no binding”.

Turning to “Leucine-rich repeat flightless-interacting protein 2 (from UniProt Q91WK0 1-415)”, the binding result is “no binding”.

On to “Insulin-like growth factor 2 mRNA-binding protein 1 (from UniProt O88477 1-577)”, for which the binding entry was “no binding”.

Turning to “Tubulin alpha-1C chain (from UniProt P68373 1-449)”, the binding entry is “no binding”.

As to Myosin-10 (from UniProt Q61879 1-1976), the binding entry was “no binding”.

B1: Plastin-3 (protein, UniProt Q99K51 1-630)
chain: MDEMATTQISKDELDELKEAFAKVDLNSNGFICDYELHELFKEANMPLPGYKVREIIQKLMVDGDRNKDGKISFNEFVYIFQEVKSSDIAKTFRKAINRKEGICALGGTSELSSEGTQHSYSEEEKYAFVNWINKALENDPDCRHVIPMNPNTDDLFKAVGDGIVLCKMINLSVPDTIDERAINKKKLTPFIIQENLNLALNSASAIGCHVVNIGAEDLRAGKPHLVLGLLWQIIKIGLFADIELSRNEALAALLRDGETLEELMKLSPEELLLRWANFHLENSGWQKINNFSADIKDSKAYFHLLNQIAPKGQKEGEPRIDINMSGFNETDDLKRAESMLQQADKLGCRQFVTPADVVSGNPKLNLAFVANLFNKYPALTKPENQDIDWTLLEGETREERTFRNWMNSLGVNPHVNHLYADLQDALVILQLYERIKVPVDWSKVNKPPYPKLGANMKKLENCNYAVELGKNPAKFSLVGIGGQDLNDGNPTLTLAVVWQLMRRYTLNVLEDLGEGQKANDDIIVNWVNRTLSEAGKSTSIQSFKDKTISSSLAVVDLIDAIQPGCINYDLVKSGNLTEDDKHNNAKYAVSMARRIGARVYALPEDLVEVKPKMVMTVFACLMGRGMKRV
In the case of B1, the binding result is “no binding”.

B2: Heterogeneous nuclear ribonucleoprotein F (protein, UniProt Q9Z2X1 1-415)
chain: MMLGPEGGEGYVVKLRGLPWSCSIEDVQNFLSDCTIHDGVAGVHFIYTREGRQSGEAFVELESEDDVKLALKKDRESMGHRYIEVFKSHRTEMDWVLKHSGPNSADSANDGFVRLRGLPFGCTKEEIVQFFSGLEIVPNGITLPVDPEGKITGEAFVQFASQELAEKALGKHKERIGHRYIEVFKSSQEEVRSYSDPPLKFMSVQRPGPYDRPGTARRYIGIVKQAGLDRMRSGAYSAGYGGYEEYSGLSDGYGFTTDLFGRDLSYCLSGMYDHRYGDSEFTVQSTTGHCVHMRGLPYKATENDIYNFFSPLNPVRVHIEIGPDGRVTGEADVEFATHEEAVAAMSKDRANMQHRYIELFLNSTTGASNGAYSSQVMQGMGVSAAQATYSGLESQSVSGCYGAGYSGQNSMGGYD
As to B2, the binding result was “no binding”.

B3: Drebrin (protein, UniProt Q9QXS6 1-706)
chain: MAGVSFSGHRLELLAAYEEVIREESAADWALYTYEDGSDDLKLAASGEGGLQELSGHFENQKVMYGFCSVKDSQAALPKYVLINWVGEDVPDARKCACASHVAKVAEFFQGVDVIVNASSVEDIDAGAIGQRLSNGLARLSSPVLHRLRLREDENAEPVGTTYQKTDAAVEMKRINREQFWEQAKKEEELRKEEERKKALDARLRFEQERMEQERQEQEERERRYREREQQIEEHRRKQQSLEAEEAKRRLKEQSIFGDQRDEEEESQMKKSESEVEEAAAIIAQRPDNPREFFRQQERVASASGGSCDAPAPAPFNHRPGRPYCPFIKASDSGPSSSSSSSSSPPRTPFPYITCHRTPNLSSSLPCSHLDSHRRMAPTPIPTRSPSDSSTASTPIAEQIERALDEVTSSQPPPPPPPPPPTQEAQETTPSLDEELSKEAKVTAAPEVWAGCAAEPPQAQEPPLLQSSPLEDSMCTESPEQAALAAPAEPAASVTSVADVHAADTIETTTATTDTTIANNVTPAAASLIDLWPGNGEEASTLQAEPRVPTPPSGAEASLAEVPLLNEAAQEPLPPVGEGCANLLNFDELPEPPATFCDPEEEVGETLAASQVLTMPSALEEVDQVLEQELEPEPHLLTNGETTQKEGTQASEGYFSQSQEEEFAQSEEPCAKVPPPVFYNKPPEIDITCWDADPVPEEEEGFEGGD
On to B3, for which the binding entry was “no binding”.

B4: DNA ligase 3 (protein, UniProt P97386 1-1015)
chain: MTLAFKILFPRNLCALGRKELCLFPEQNRWAAISQFSQWSETNLLGGCCLLQRRKPVLALQRGHLRPRATHLTFWPGSHVGLCTGPCAMAEQRFCVDYAKRGTAGCKKCKEKIVKGVCRIGKVVPNPFSESGGDMKEWYHIKCMFEKLERARATTKKIEDLTELEGWEELEDNEKEQISQHIADLSSKAAATPKKKAAVQAKLTTTGQVTSPVKGASFITSTNPRKFSGFSAAKPNNSEQAPSSPAPGTSLSASKCDPKHKDCLLREFRKLCAMVAENPSYNTKTQIIHDFLQKGSTGGFSDGFHGDVYLTVKLLLPGVIKSVYNLNDKQIVKLFSRIFNCNPDDMARDLEQGDVSETIRIFFEQSKSFPPAAKSLLTIQEVDAFLLHLSKLTKEDEQQQALQDIASRCTANDLKCIIRLIKHDLKMNSGAKHVLDALDPNAYEAFKASRNLQDVVERVLHNEQEVEKDPGRRRALRVQASLMTPVQPMLAEACKSIEYAMKKCPNGMFSEIKYDGERVQVHKKGDHFSYFSRSLKPVLPHKVAHFKDYIPKAFPGGQSMILDSEVLLIDNNTGKPLPFGTLGVHKKAAFQDANVCLFVFDCIYFNDVSLMDRPLCERRKFLHDNMVEIRNRIMFSEMKQVTKASDLADMINRVIREGLEGLVLKDVKGTYEPGKRHWLKVKKDYLNEGAMADTADLVVLGAFYGQGSKGGMMSIFLMGCYDPDSQKWCTVTKCAGGHDDATLARLQKELVMVKISKDPSKIPSWLKINKIYYPDFIVPDPKKAAVWEITGAEFSRSEAHTADGISIRFPRCTRIRDDKDWKSATNLPQLKELYQLSKDKADFAVVAGDEASPTTGGSSGENEGTAGSAGPCKGPPSKSSASAKTTEQKLNSPSSRGGIKPIPKHSPMKPGEKLAVKSSPVKVGMKRKATDETPCLKKVLLDVFTGVRLYLPPSTPDFKRLKRYFVAFDGDLVQEFDMGSATHVLGNREKNTDAQLVSSEWIWACIRKRRLIAPC
B4: the binding result is “no binding”.

B5: Tropomodulin-3 (protein, UniProt Q9JHJ0 1-352)
chain: MALPFRKDLGDYKDLDEDELLGKLSESELKQLETVLDDLDPENALLPAGFRQKNQTSKSATGPFDRERLLSYLEKQALEHKDRDDYVPYTGEKKGKIFIPKQKPAQTLTEETISLDPELEEALTSASDTELCDLAAILGMHNLIADTPFCDVLGSSNGVNQERFPNVVKGEKILPVFDEPPNPTNVEESLKRIRENDARLVEVNLNNIKNIPIPTLKDFAKTLEANTHVKHFSLAATRSNDPVAVAFADMLKVNKTLKSLNMESNFITGAGVLALIDALRDNETLMELKIDNQRQQLGTSVELEMAKMLEENTNILKFGYQFTQQGPRTRAANAITKNNDLVRKRRIEGDHQ
Regarding B5, the binding result is given as “no binding”.

B6: Paraspeckle component 1 (protein, UniProt Q8R326 1-523)
chain: MMLRGNLKQVRIEKNPARLRALESAAGESEPVAAAAMALTLAGEQAPPPAPSEEHPDEELGFTIDIKSFLKPGEKTYTQRCRLFVGNLPTDITEEDFKRLFERYGEPSEVFINRDRGFGFIRLESRTLAEIAKAELDGTILKSRPLRIRFATHGAALTVKNLSPVVSNELLEQAFSQFGPVEKAVVVVDDRGRATGKGFVEFAAKPPARKALERCGDGAFLLTTTPRPVIVEPMEQFDDEDGLPEKLMQKTQQYHKEREQPPRFAQPGTFEFEYASRWKALDEMEKQQREQVDRNIREAKEKLEAEMEAARHEHQLMLMRQDLMRRQEELRRLEELRNQELQKRKQIQLRHEEEHRRREEEMIRHREQEELRRQQEGGFKPNYMENREQEMRMGDMGPRGAINMGDAFSPAPAGTQGPPPMMGMNMNNRGTIPGPPMGPGPAMGPEGAANMGTPMIPDNGAVHNDRFPQGPPSQMGSPMGNRTGSETPQAPMSGVGPVSGGPGGFGRGSQGGNFEGPNKRRRY
B6: the binding entry is listed as “no binding”.

B7: Histone H1.1 (protein, UniProt P43275 1-213)
chain: MSETAPVAQAASTATEKPAAAKKTKKPAKAAAPRKKPAGPSVSELIVQAVSSSKERSGVSLAALKKSLAAAGYDVEKNNSRIKLGLKSLVNKGTLVQTKGTGAAGSFKLNKKAESKAITTKVSVKAKASGAAKKPKKTAGAAAKKTVKTPKKPKKPAVSKKTSKSPKKPKVVKAKKVAKSPAKAKAVKPKASKAKVTKPKTPAKPKKAAPKKK
On to B7, for which the binding entry is on record as “no binding”.
